PubChem BioAssay AID1224830, NIAID | 2016
In all, the deposit lists about 18,000 reagents; shown is a random part of them. About 2,900 of them (16%) were called active. 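Calls are made per well; low scores hint the gene aids the LPS response, high scores that it dampens it.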 Repeated entries: four replicate wells of each siRNA pool.

- Screen: 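Regulators of TLR4 signalling towards TNF-alpha in macrophage-like cells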 (primary screen)
- System: human THP-1 monocytic leukaemia cells, TNF dual-luciferase reporter clone, PMA-differentiated to macrophage-like cells
- Reagents: siRNA pool against human genes, 50 nM
- Time to read-out: LPS for 4 h, given about 3 days after siRNA transfection
- Challenge: bacterial LPS (TLR4 ligand), 10 ng/ml
- Measured: 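TNF firefly reporter luminescence divided by renilla, normalised to the plate median, then turned into a robust z-score for each replicate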
- Direction: TNF reporter robust z-score: higher = stronger TNF reporter response to LPS
- Hit rule: 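Each well counts as active if its z-score is over 2.8 or under -1.5; controls are left without a call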

CDH7 (cadherin 7)
- TNF reporter robust z-score: 0.54
- activity call: inactive

CDH7 (cadherin 7)
- TNF reporter robust z-score: 1.32
- activity call: inactive

CDH7 (cadherin 7)
- TNF reporter robust z-score: 1.08
- activity call: inactive

CDH7 (cadherin 7)
- TNF reporter robust z-score: 0.8
- activity call: inactive

NR4A2 (nuclear receptor subfamily 4 group A member 2)
- TNF reporter robust z-score: 1.96
- activity call: inactive

NR4A2 (nuclear receptor subfamily 4 group A member 2)
- TNF reporter robust z-score: 1.08
- activity call: inactive

NR4A2 (nuclear receptor subfamily 4 group A member 2)
- TNF reporter robust z-score: 1.6
- activity call: inactive

NR4A2 (nuclear receptor subfamily 4 group A member 2)
- TNF reporter robust z-score: 0.57
- activity call: inactive

BSND (barttin CLCNK type accessory subunit beta)
- TNF reporter robust z-score: 0.44
- activity call: inactive

BSND (barttin CLCNK type accessory subunit beta)
- TNF reporter robust z-score: -0.5
- activity call: inactive

BSND (barttin CLCNK type accessory subunit beta)
- TNF reporter robust z-score: 0.46
- activity call: inactive

BSND (barttin CLCNK type accessory subunit beta)
- TNF reporter robust z-score: 0.89
- activity call: inactive

CASKIN2 (CASK interacting protein 2)
- TNF reporter robust z-score: -1.52
- activity call: active

CASKIN2 (CASK interacting protein 2)
- TNF reporter robust z-score: -1.24
- activity call: inactive

CASKIN2 (CASK interacting protein 2)
- TNF reporter robust z-score: -1.46
- activity call: inactive

CASKIN2 (CASK interacting protein 2)
- TNF reporter robust z-score: -1.09
- activity call: inactive

CEP164 (centrosomal protein 164)
- TNF reporter robust z-score: 0.08
- activity call: inactive

CEP164 (centrosomal protein 164)
- TNF reporter robust z-score: 0.06
- activity call: inactive

CEP164 (centrosomal protein 164)
- TNF reporter robust z-score: 0.63
- activity call: inactive

CEP164 (centrosomal protein 164)
- TNF reporter robust z-score: 2.18
- activity call: inactive

SNX25 (sorting nexin 25)
- TNF reporter robust z-score: 0.64
- activity call: inactive

SNX25 (sorting nexin 25)
- TNF reporter robust z-score: 0.75
- activity call: inactive

SNX25 (sorting nexin 25)
- TNF reporter robust z-score: 0.1
- activity call: inactive

SNX25 (sorting nexin 25)
- TNF reporter robust z-score: 0.06
- activity call: inactive

SUPT6H
- TNF reporter robust z-score: 2.68
- activity call: inactive

SUPT6H
- TNF reporter robust z-score: 1.9
- activity call: inactive

SUPT6H
- TNF reporter robust z-score: 1.44
- activity call: inactive

SUPT6H
- TNF reporter robust z-score: 3.53
- activity call: active

LHX4 (LIM homeobox 4)
- TNF reporter robust z-score: -0.46
- activity call: inactive

LHX4 (LIM homeobox 4)
- TNF reporter robust z-score: 0.17
- activity call: inactive

LHX4 (LIM homeobox 4)
- TNF reporter robust z-score: -0.44
- activity call: inactive

LHX4 (LIM homeobox 4)
- TNF reporter robust z-score: -0.25
- activity call: inactive

In a second layout: 3 of the entries above.
| target | TNF reporter robust z-score | activity call |
| --- | --- | --- |
| CEP164 (centrosomal protein 164) | 0.63 | inactive |
| CEP164 (centrosomal protein 164) | 2.18 | inactive |
| SNX25 (sorting nexin 25) | 0.64 | inactive |
